Source: publication PMC10783490, “Biochemical and cellular insights into the Baz2B protein, a non-catalytic subunit of the chromatin remodeling complex” (Nucleic Acids Research, 2023)
Positions count from the first letter of the chain named. Results are given in words; binding and its absence hold for the method and conditions named.

How the values were obtained:
[1] = biological target: T1, BRD^Baz2B A2149V (human) (UniProt Q9UIF8); experiment: MST; 100 nM fluorescently labelled (RED-NHS) BRD^Baz2B, peptide (H3 or H3K14ac) titrated; MST buffer 150 mM Tris-HCl, 50 mM NaCl, 10 mM MgCl2, pH 7.6, 0.0025% Pluronic, 200 ng/ul BSA; 25 C, 20% MST power; at least triplicate; both purified
T1 sequence (chain, fluorescent label (Monolith NT Protein Labelling Kit RED-NHS)): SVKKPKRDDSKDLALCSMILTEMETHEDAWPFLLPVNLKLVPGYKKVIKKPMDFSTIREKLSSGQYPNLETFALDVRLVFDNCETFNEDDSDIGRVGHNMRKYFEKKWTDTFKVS

[2] = biological target: T2, BRD^Baz2B F2107V (human) (UniProt Q9UIF8); experiment: as above
T2 sequence (chain, fluorescent label (Monolith NT Protein Labelling Kit RED-NHS)): T1 sequence (chain, fluorescent label (Monolith NT Protein Labelling Kit RED-NHS)) with F54V, V96A

binding [1]: no binding
binding [2]: no binding
B1: H3 peptide (Ac-…-NH2) (peptide)
peptide: TARKSTGGKAPRKQL
modifications: N-terminal acetyl; C-terminal amide
